Measurements reported in PubChem BioAssay AID1671195 (Yale University, 2021)

Aim: 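Knockdowns that increase or decrease uptake of fluorescent LDL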 (primary screen)
System: human Huh7 hepatoma cells
Knock-down reagent: siRNA pool against human genes, 18 nM
Duration: about 2 to 2.5 days of knockdown, then 8 h LDL uptake
Challenge: DiI-labelled LDL at 30 µg/ml for 8 h, in lipoprotein-deficient serum medium
Read-out: 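Fluorescent LDL signal imaged in cells, scaled to the plate median, robust z-score for each replicate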
Reading the numbers: robust z-score: higher = more LDL uptake after knockdown
Call rule: 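a gene counts as active if at least two replicate z-scores exceed ±2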
In all, the deposit lists about 22,000 reagents; this is a random part of them. About 1,510 of them (6.9%) count as active. 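Active includes knockdowns raising or lowering LDL uptake; positive z-scores mean more uptake, negative mean less.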 The numbers tell different reagents against one gene apart. Reagent sequences are not shown.

gene	reagent no.	robust z-score, replicate 1	robust z-score, replicate 2	robust z-score, replicate 3	call
PRKY (GeneID 5616)	1	-2.43	-1.79	-2.18	active
C9orf78 (GeneID 51759)	1	0.671	0.461	-2.08	inactive
POLD1 (GeneID 5424)	1	-0.0472	-0.198	-0.0188	inactive
CCNT2 (GeneID 905)	1	-0.248	0.464	0.992	inactive
FOXR1 (GeneID 283150)	1	0.381	0.182	0.538	inactive
KDM7A (GeneID 80853)	1	0.427	-0.422	0.61	inactive
CFAP47 (GeneID 286464)	1	0.831	0.601	0.969	inactive
CFAP47 (GeneID 286464)	2	-0.604	-0.364	-0.389	inactive
KLHL38 (GeneID 340359)	1	0.51	0.182	0.548	inactive
ANKFN1 (GeneID 162282)	1	-0.00297	-1.39	-1	inactive
F11 (GeneID 2160)	1	-0.298	-0.598	-0.394	inactive
ACAP3 (GeneID 116983)	1	-0.211	-0.538	-0.584	inactive
ZNF573 (GeneID 126231)	1	1.05	-0.166	0.0662	inactive
PEX14 (GeneID 5195)	1	-0.553	0.0708	-0.117	inactive
WFDC10A (GeneID 140832)	1	-1.31	-1.02	-1.03	inactive
PI4K2A (GeneID 55361)	1	-0.626	-0.227	-0.677	inactive
CASR (GeneID 846)	1	1.03	1.59	2.45	inactive
WASL (GeneID 8976)	1	-1.05	1.1	-0.316	inactive
FAM227B (GeneID 196951)	1	0.591	0.557	-0.202	inactive
CACNA1H (GeneID 8912)	1	-0.368	0.0512	-0.614	inactive
PDZD9 (GeneID 255762)	1	-0.363	-0.481	-0.312	inactive
ALKBH7 (GeneID 84266)	1	-0.235	-0.0324	-0.123	inactive
MMP3 (GeneID 4314)	1	0.0112	1.37	0.325	inactive
IL12RB2 (GeneID 3595)	1	0.744	0.979	0.564	inactive
KCNMB2 (GeneID 10242)	1	-0.286	-0.479	0.0103	inactive
AACS (GeneID 65985)	1	1.72	-0.118	-0.158	inactive
PHF10 (GeneID 55274)	1	-1.1	1.15	1.06	inactive
RABAC1 (GeneID 10567)	1	-0.501	-0.702	-1.01	inactive
LEPROTL1 (GeneID 23484)	1	-1.76	-0.707	-1.33	inactive
KLHL30 (GeneID 377007)	1	-0.944	-0.991	-0.947	inactive
RC3H2 (GeneID 54542)	1	-1.95	-0.301	-2.67	active
SCCPDH (GeneID 51097)	1	2.04	1.56	1.89	inactive
UBA3 (GeneID 9039)	1	-1.35	-0.794	0.175	inactive
NUF2 (GeneID 83540)	1	3.13	1.05	1.22	inactive
RPL21P131 (GeneID 388532)	1	-0.627	-0.313	-0.376	inactive
RAB3GAP2 (GeneID 25782)	1	1.11	-0.0541	-0.0117	inactive
CCT7P1 (GeneID 442267)	1	0.441	0.445	0.763	inactive
PTBP3 (GeneID 9991)	1	2.25	3.5	2.31	active
GINS3 (GeneID 64785)	1	-0.348	-0.292	-0.782	inactive
GDI1 (GeneID 2664)	1	0.0681	1.53	0.159	inactive
S100A13 (GeneID 6284)	1	-0.399	-0.238	-0.542	inactive
EMB (GeneID 133418)	1	-0.291	-0.194	-0.471	inactive
ZNF141 (GeneID 7700)	1	-1.78	-1.59	-1.3	inactive
CORO2B (GeneID 10391)	1	-1.03	-1.83	-2.01	inactive
NTMT1 (GeneID 28989)	1	-1.13	-1.28	-1.11	inactive
CALCOCO2 (GeneID 10241)	1	2.7	0.58	3.85	active
PGAM1P8 (GeneID 440043)	1	0.655	0.0594	0.408	inactive
VAPB (GeneID 9217)	1	-0.376	-0.619	-0.349	inactive
FAM209B (GeneID 388799)	1	-0.58	-0.967	-0.628	inactive
CYP1B1-AS1 (GeneID 285154)	1	-0.487	-0.679	-0.69	inactive
FOXF2 (GeneID 2295)	1	-1.11	-1.46	-1.34	inactive
ZNF383 (GeneID 163087)	1	-0.378	-0.489	-0.837	inactive
LOC441802 (retired record) (GeneID 441802)	1	-0.96	-0.902	-0.774	inactive
MOB1A (GeneID 55233)	1	-0.485	-0.858	-1.59	inactive
LINC00851 (GeneID 440757)	1	-0.564	0.255	-0.0945	inactive
SPAAR (GeneID 158376)	1	2.52	0.85	1.93	active
VCL (GeneID 7414)	1	-0.82	-1.19	-1.07	inactive
ZNF718 (GeneID 255403)	1	-0.516	-0.288	-0.211	inactive
LINC00635 (GeneID 151658)	1	-0.972	-0.908	-1.23	inactive
RAB43P1 (GeneID 440375)	1	2.24	2.76	2.95	active
TMEM182 (GeneID 130827)	1	-1.01	-1.07	-1.36	inactive
MIR600HG (GeneID 81571)	1	-0.292	0.159	0.254	inactive
CTCF (GeneID 10664)	1	-0.523	-0.168	0.349	inactive
YAE1 (GeneID 57002)	1	0.156	0.124	-0.731	inactive
SLC52A2 (GeneID 79581)	1	-0.214	-0.372	-0.54	inactive
LOC440116 (retired record) (GeneID 440116)	1	0.0259	-0.33	-0.316	inactive
TAS2R4 (GeneID 50832)	1	-0.285	-1.25	0.111	inactive
EDA2R (GeneID 60401)	1	-1.53	-1.44	-1.48	inactive

9 of these entries in another layout.
{"gene": "GDI1 (GeneID 2664)", "reagent no.": 1, "robust z-score, replicate 1": 0.0681, "robust z-score, replicate 2": 1.53, "robust z-score, replicate 3": 0.159, "call": "inactive"}
{"gene": "S100A13 (GeneID 6284)", "reagent no.": 1, "robust z-score, replicate 1": -0.399, "robust z-score, replicate 2": -0.238, "robust z-score, replicate 3": -0.542, "call": "inactive"}
{"gene": "EMB (GeneID 133418)", "reagent no.": 1, "robust z-score, replicate 1": -0.291, "robust z-score, replicate 2": -0.194, "robust z-score, replicate 3": -0.471, "call": "inactive"}
{"gene": "ZNF141 (GeneID 7700)", "reagent no.": 1, "robust z-score, replicate 1": -1.78, "robust z-score, replicate 2": -1.59, "robust z-score, replicate 3": -1.3, "call": "inactive"}
{"gene": "CORO2B (GeneID 10391)", "reagent no.": 1, "robust z-score, replicate 1": -1.03, "robust z-score, replicate 2": -1.83, "robust z-score, replicate 3": -2.01, "call": "inactive"}
{"gene": "NTMT1 (GeneID 28989)", "reagent no.": 1, "robust z-score, replicate 1": -1.13, "robust z-score, replicate 2": -1.28, "robust z-score, replicate 3": -1.11, "call": "inactive"}
{"gene": "CALCOCO2 (GeneID 10241)", "reagent no.": 1, "robust z-score, replicate 1": 2.7, "robust z-score, replicate 2": 0.58, "robust z-score, replicate 3": 3.85, "call": "active"}
{"gene": "PGAM1P8 (GeneID 440043)", "reagent no.": 1, "robust z-score, replicate 1": 0.655, "robust z-score, replicate 2": 0.0594, "robust z-score, replicate 3": 0.408, "call": "inactive"}
{"gene": "VAPB (GeneID 9217)", "reagent no.": 1, "robust z-score, replicate 1": -0.376, "robust z-score, replicate 2": -0.619, "robust z-score, replicate 3": -0.349, "call": "inactive"}
